In US11535647 (dated 2022):

Experiments:
[1] = general procedure: Fmoc solid-phase peptide synthesis; (2-chloro) trityl chloride resin; DIC / 1-hydroxybenztriazole; details: whole synthesis, scale 0.30 mmol
[2] = general procedure: Fmoc solid-phase peptide synthesis; Fmoc-NH-SAL resin; DIC / 1-hydroxybenztriazole; details: whole synthesis

With H-YERAKSNM-OH the crude mass [1] was 179.5 mg.
Ac-ALRAL-NH2 showed a crude mass ([2]; scale 0.15 mmol) of 90.6 mg.
Ac-YFYPEL-NH2 gave a crude mass ([2]; scale 0.1 mmol) of 90.6 mg.
